Data as given in patent US20110287023A1.
No constants are given. Whether binding was seen depends on the method and setting. Some results given as binding are weak or reduced against the parent protein; the word gives no strength.

Sequences of proteins named here, by UniProt entry; tags and fusion partners are left off.
UniProt P09429: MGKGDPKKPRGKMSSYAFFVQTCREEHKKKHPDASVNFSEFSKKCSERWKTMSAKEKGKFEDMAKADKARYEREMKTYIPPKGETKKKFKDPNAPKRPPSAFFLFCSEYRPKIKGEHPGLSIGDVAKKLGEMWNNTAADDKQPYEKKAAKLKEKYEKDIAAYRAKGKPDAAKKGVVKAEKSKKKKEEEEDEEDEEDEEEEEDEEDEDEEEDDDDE

Legend:
[1] = target: T1, HMGB1 B-box peptide 91-108 (UniProt P09429); assay: ELISA, biotinylated peptide on NeutrAvidin plate, antibody serially diluted from 10 ug/ml, anti-human IgG-HRP, OD 450
T1 sequence (peptide, biotinylated, looked up): DPNAPKRPPSAFFLFCSE

[2] = target: HMGB1 in human sepsis sera (human) (UniProt P09429); assay: immunoprecipitation and Western blot
[3] = target: T1, HMGB1 B-box peptide 91-108; assay: ELISA on biotinylated overlapping peptides, FIG. 5C
[4] = target: T1, HMGB1 B-box peptide 91-108; assay: ELISA on biotinylated overlapping peptides

Measured: binding

B1: human anti-HMG1 antibody G4 (antibody, IgG1, V domains shown)
VH: EVQLLESGGGLVQPGGSLRLSCAASGFTFSWYDMTWVRQAPGKGLEWVSSISPSGGYTKYADSVKGRFTISRDNSKNTLYLQMNSLRAEDTAVYYCTTEFYDYLDVWGKGTTVTVSS
VL: DIQMTQSPGTLSLSPGEGATLSCRASQSVSSTYLAWYQQKPGQAPRLLIYEASKRATGTPARFSGSGSGTDFTLSISSLEPEDFAVYYCQHRHNWPPQWTFGQGTKVEVK
binds: [1] | [2] | [3] | [4]

B2: human anti-HMG1 antibody S16 (antibody, IgG1, V domains shown)
VH: EVQLLESGGGLVQPGGSLRLSCAASGFTFSWYSMLWVRQAPGKGLEWVSYISPSGGFTNYADSVKGRFTISRDNSKNTLYLQMNSLRAEDTAVYYCARWDYNSGWYYDHWGQGTLVTVSS
VL: DIQMTQSPDTLSLSPGERATLSCRASQSVNSRNLAWYQQKPGQAPRLLIYGASTRATGIPDRFSGSVSGTEFTLTISSLQPDDFATYYCQQYNSYFTFGQGTKLEIK
binds: [1] | [3] | [4]
